Experimental findings from publication PMC11116810 are described below.

The target of the test is T1, ERLIN2 (ER lipid raft-associated 2) (human (endogenous in HeLa)) (UniProt O94905).
T1 sequence: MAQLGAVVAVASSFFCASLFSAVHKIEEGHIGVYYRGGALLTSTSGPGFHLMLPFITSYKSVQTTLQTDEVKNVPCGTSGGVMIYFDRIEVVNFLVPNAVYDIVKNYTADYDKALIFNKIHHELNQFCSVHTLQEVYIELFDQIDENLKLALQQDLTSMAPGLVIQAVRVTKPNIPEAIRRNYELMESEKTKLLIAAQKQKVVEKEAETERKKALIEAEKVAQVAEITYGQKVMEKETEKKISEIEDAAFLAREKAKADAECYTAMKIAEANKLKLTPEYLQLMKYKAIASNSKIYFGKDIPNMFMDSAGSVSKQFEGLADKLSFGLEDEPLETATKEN
The test is described as follows: co-IP; reciprocal co-IPs of endogenous ERLIN2 and TMUB1 from HeLa lysate (IP buffer: Tris-HCl pH 7.4 50 mM, KCl 50 mM, Triton X-100 0.5%), Western blot.

No constants are given. Whether binding was seen depends on the method and setting. Binding seen in cells or lysates may run through a third protein.

With “TMUB1-S (short isoform of TMUB1) (human (endogenous in HeLa))”, the binding entry was “no binding”.
